# Assay results as given in article PMC7862700.
# Only a part is listed here, and it is no random draw. At the low end of the ranking the order means little.
# Target: SPI1 (UniProt P17947)
# Assay: DAPPL (digital affinity profiling via proximity ligation, sequencing)
# Details: 10 mM Tris-HCl pH 7.5, 50 mM NaCl, 1 mM DTT, 4% glycerol, room temperature, 30 min; GST-TFs on glutathione beads, 16-mer random dsDNA library, 0.1% …; high values mean tight binding; double strand, one strand shown; scale: fold enrichment (6-mer frequency, TF over GST control)
row,Sequence,binding signal
1,ATTACC,1.16
2,GTCATT,0.93
3,GTCTCG,1.33
4,GATGTC,1.23
5,GATTCG,0.983
6,ATAGGC,0.957
7,TGCTTA,0.995
8,GCGTTA,0.96
9,ATATCA,1.13
10,ACAGAA,0.982
11,TCCAAG,1.03
12,CGCGCC,0.985
13,GAAAGT,0.898
14,ATCGTT,0.935
15,TCGGCT,0.909
16,TATAAA,1.26
17,TCCGGG,1.4
18,GGTCCA,0.824
19,ATCCTT,1.7
20,GGCTTT,0.859
21,CATAGT,0.901
22,CGTCAT,0.958
23,CGGTAT,0.966
24,GCCTAG,0.846
25,TGGATA,0.98
26,CTGAGG,0.814

# Copied from the list:
# binding signal, CATAGT is entered as 0.901
# binding signal, ACAGAA is entered as 0.982
# binding signal, ATTACC is entered as 1.16

# More records

row,Sequence,binding signal
1,CCAATA,1.2
2,GTGTAC,0.943
3,ACACGG,0.971
4,GACTGC,0.911
5,TTAGTC,0.798
6,TACCTG,0.969
7,CAGAAA,0.998
8,AACAGA,0.982
9,AAATGC,1.48
10,CTGGTA,1.33
11,TAGGCA,0.979
12,CAAGAA,1.06
13,GTCCGC,0.931
14,GTACAG,0.954
15,TTGGCT,0.89
16,AGAACC,0.871
17,ACAAGG,0.972
18,GGGATT,0.839
19,GCATTA,0.8
20,TTAGGC,0.941
21,TAGCGA,0.981
22,GACTAC,1.12
23,GCCACA,0.894
24,ATTCTC,1.27
25,AGCTGT,0.965
26,TCTGTA,1.16

row,Sequence,binding signal
1,GCGACG,0.831
2,GATTGC,0.941
3,TCAGAC,0.894
4,GTCTCT,1.32
5,TGCGCC,1.22
6,CATAGA,0.895
7,AGGAAT,0.772
8,CAGCAT,0.941
9,TAATGG,1.28
10,AGCACG,0.931
11,TCAGTA,0.96
12,CTTGAA,1.13
13,AGTATT,1.1
14,CCGGTC,1.01
15,GTACGA,1.05
16,AGTGGT,1.42
17,TTATAT,1.32
18,GGTCTG,0.916
19,TAGGTA,0.938
20,GTCGAC,1.08
21,TGATGA,1.2
22,AATTCG,1.13
23,GTTTTT,1.42
24,TAAATT,1.22
25,TTCATG,1.32
26,TAGTTG,0.94
